Experimental data from patent publication US10618939B2, “Hydrocarbon-stapled polypeptides for enhancement of endosome-lysosomal degradation” (The Hong Kong Polytechnic University, priority 2016, dated 2020).
pKd: −log10 of the molar value. Values joined by “and” are separate entries in the source; they are usually repeats but may differ in a detail not shown here. Identical values can stand only once. For at least one compound, name, drawing or mass did not settle the structure. Bridge positions count the residues as written; N and C are the ends. Square brackets hold non-standard residues; d marks the D form. Peptide text beside a SMILES is read from it. R8 = C=CCCCCCC[C@@](C)(N)C(=O)O; S5 = C=CCCC[C@](C)(N)C(=O)O

Amino acid sequences for entries named in this document (tags omitted). Residues count along the entry.
UniProt Q91XJ1, 174-266 limits assumed: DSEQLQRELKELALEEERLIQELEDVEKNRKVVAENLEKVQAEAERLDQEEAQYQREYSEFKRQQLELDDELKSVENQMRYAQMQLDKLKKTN

Biological target: T1, Beclin 1 coiled coil domain (Rattus norvegicus, UniProt Q91XJ1)
T1 construct: thioredoxin-6xHis fusion (3C protease site) (cleaved yes); made in house; host or cells: Escherichia coli BL21 (DE3)
Assay: ITC measurement of binding to Beclin 1 coiled coil domain

## CC[C@H](C)[C@H](NC(=O)[C@H](CC(C)C)NC(=O)[C@H](CCCNC(=N)N)NC(C)=O)C(=O)N[C@@H](CO)C(=O)N[C@@H](CCC(=O)O)C(=O)N[C@@H](CC(C)C)C(=O)N[C@]1(C)CCCCCC/C=C/CCC[C@@](C)(C(=O)N[C@@H](C)C(N)=O)NC(=O)[C@H](CCCNC(=N)N)NC(=O)[C@H](CCC(N)=O)NC(=O)[C@H](CCCCN)NC(=O)[C@H](CCC(=O)O)NC(=O)[C@H](CCCNC(=N)N)NC(=O)[C@H](CC(=O)O)NC1=O [SP4] (Ac-RLISEL[R8]DREKQR[S5]A-NH2; staple (E) 7-14; N-terminus and C-terminus assumed)
  pKd: 5.70 and ~5.70
